In PubChem BioAssay AID1347423 (Functional Genomics Laboratory (NCATS/FGL), 2020):
Hit rate of the full screen: of about 52,000 sequences, about 210 (0.4%) were called active.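 Rule for the calls: active = gene whose silencing raises cell survival under the drug, median off-target-corrected z-score across its silencing RNAs 2 or more; inactive = the rest.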 The list shows a part of the results.

Experiment: Resistance to Poly (ADP-Ribose) Polymerase inhibitor: Gene Identification via Genome-wide siRNA Screen
Details: mouse BRCA2 R2336H ES cells, olaparib, CellTiter-Glo viability; hits give high values
In short: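 Mouse BRCA2 R2336H ES cells were reverse-transfected with siRNA (20 nM final), treated at 48 h with 500 nM olaparib, and read by CellTiter-Glo after 72 h. Scores: MAD-based z per siRNA, median per gene, seed off-target correction.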

Sequence | z-score
GGAUCCUAAAACUGAGGAATT against 4632407F12Rik | inactive: -2.61
CCUACUAAACUCAGUCUUUTT against Kap | inactive: -0.469
GGAAAACACCGCAUAUAAUTT against Ss18l1 | inactive: 1.33
GGUGCUGUUGGUAUAUUAUTT against Ssr2 | inactive: -0.305
GGCAAUGAGUUCUGGAGUGTT against Capn8 | inactive: -0.268
CGACAUAGCUUCUGUACUGTT against 1700026L06Rik | inactive: 0.57
GCAACGACUCAACCAAUUCTT against 3110043L15Rik | inactive: -0.83
GGGAAAGCAGAUCCACAACTT against Adh1 | inactive: -0.639
GGAAUUUGCCAAAGACCUGTT against Phf13 | inactive: 0.943
GGAACACAAGCAACAACCATT against Nut | inactive: 1.7
GGAAGCUGAACUCCUGAAATT against Stmn4 | inactive: -2.97
GGUGGAAUAUUUCAUGGACTT against Csnk2a1 | inactive: 0.627
GGAGAGGAAGCCUAUGAACTT against Zfp180 | inactive: -0.305
GUUCAUUCUUGAAGGCCUGTT against Olfr1039 | inactive: 0.546
UUGACUCACCUUCCGAGGUTT against Sprrl3 | inactive: -0.238
GGAAGUAAAAACAUACCUUTT against 2510006C20Rik | inactive: 0.933
GGAACAGAUACCUUUCUAUTT against 2310011G06Rik | inactive: -1.19
GGCUGUUUUUACACUUCGCTT against Olfr1395 | inactive: 0.386
GGUGCCCACCAAUCAACAUTT against Slc9a3r1 | inactive: -0.415
GGUACCUAUUGAGAUCAAGTT against Pte1 | inactive: -0.452
GGAAAGUCCUUCCUUUUGGTT against Zfp179 | inactive: -0.755
GGGUCAUAAAGGAUUUCAUTT against Ppih | inactive: -1.79
GCUCAUUGCCAAGAUGACATT against Tcea3 | inactive: 0.923
CGGACUCUGUGUUCUUAGATT against Alg3 | inactive: 0.263
GCUCUAUCACUCGUUGAAGTT against Trim27 | inactive: -0.234
CCUCGAAAUACGAAGGCAATT against X83328 | inactive: -1.13

In another format: entries from further up
Sequence	z-score
GUUCAUUCUUGAAGGCCUGTT against Olfr1039	inactive: 0.546
UUGACUCACCUUCCGAGGUTT against Sprrl3	inactive: -0.238
GGAAGUAAAAACAUACCUUTT against 2510006C20Rik	inactive: 0.933
GGAACAGAUACCUUUCUAUTT against 2310011G06Rik	inactive: -1.19
GGCUGUUUUUACACUUCGCTT against Olfr1395	inactive: 0.386

Remaining list, next part

Sequence | z-score
GCCAACCAAAACCUAAGCATT against Gja7 | inactive: 2.59
GGAGAUGCCAGAGGUCAAATT against Gzmk | inactive: -0.932
GGCAGAGAAAAGGACCUUUTT against 2400002F11Rik | inactive: -1.69
GGAGCUUCAGCAUGAAAACTT against Ulk2 | inactive: -0.337
GCAGAGAUCCCUUCUACAATT against Rnf32 | inactive: -0.879
CGAUAGCGAAUUUACAGUUTT against Prdx6 | inactive: -0.129
GGAAACCUGAUGAUCUUUUTT against Olfr421 | inactive: -0.43
GGCCUGUUUUGAAGUAGAATT against B630019K06Rik | inactive: -1.48
GGAAACCAAUAGGAAGUAUTT against Ubqln1 | inactive: -1.28
GGAGAGCUAGCCUUAAUAATT against Bspry | inactive: 0.758
GCAUGGUUUAAUGGCUCGGTT against A930016P21Rik | inactive: 1.29
GCUCACAAAGCAAAGACAATT against 3110009E18Rik | inactive: -0.441
GGGACUUACAAGCAGAUUCTT against Casp9 | inactive: 0.166
GGUCCAGAAGAAUUAUGAATT against Magmas | inactive: -0.776
GGAGUUCCACUUUCCAGUUTT against D2Bwg0891e | inactive: -0.665
GCAGAAAUCUGCCCAGCAGTT against 2410005K17Rik | inactive: -0.695
CGGAUCUGAGAUAAAGACGTT against 9330196J05Rik | inactive: 1.49
GGGCUACUGAGAAAAUUACTT against BC006909 | inactive: 2.6
GGAAGGAAGAUGAAAGCCATT against Hspb3 | inactive: -0.395
GGUAUCAGUGAGUGGUACGTT against 5730449L18Rik | inactive: 1.63
GGUGAUAACUCCCUAGUAGTT against Rai12 | inactive: -1.43
GCUCUGUUCACCUACCCGATT against D10Ertd641e | inactive: 0.136
GAGGUUCAGUUUUGGCUGGTT against Olfr558 | inactive: 0.309
GGAAGACAACUGUUGUGGCTT against Nsddr | inactive: 0.0579
GCUAAAAACAGCUAAAGAATT against Adam4 | inactive: -0.0849
GGCAGUUCAAGGCAAUAAATT against Olfm1 | inactive: -2.09
